In brackets after ≈: the same amount, converted by molar mass.
How the values were obtained:
[1] = system: clinical isolates of P. acnes displaying antibiotic-resistant phenotypes; assay: MIC against clinical isolates of P. acnes displaying antibiotic-resistant phenotypes (Table 2); assay type: cell-based, Propionibacterium acnes; conditions: for Cumul. %: resistant isolates
[2] = system: clinical isolates of P. acnes displaying antibiotic-sensitive phenotypes; assay: MIC against clinical isolates of P. acnes displaying antibiotic-sensitive phenotypes (Table 3); assay type: cell-based, Propionibacterium acnes; conditions: for Cumul. %: sensitive isolates
[3] = Cutibacterium acnes, 15 isolates resistant to clindamycin or erythromycin

## CCC[C@@H]1C[C@@H](C(=O)N[C@@H]([C@H]2O[C@H](SC)[C@H](O)[C@@H](O)[C@H]2O)[C@H](C)Cl)N(C)C1 [Clindamycin]
[1]; [3]
  MIC50: 64 µg/mL (≈ 151 µM)
  MIC90: 256 µg/mL (≈ 602 µM)
[1]; resistant isolates with MIC 4 μg/ml
  N° isolates: 3
[1]; resistant isolates with MIC 8 μg/ml
  N° isolates: 2
[1]; resistant isolates with MIC 16 μg/ml
  N° isolates: 0
[1]; resistant isolates with MIC 32 μg/ml
  N° isolates: 0
[1]; resistant isolates with MIC 64 μg/ml
  N° isolates: 8
[1]; resistant isolates with MIC 128 μg/ml
  N° isolates: 0
[1]; resistant isolates with MIC 256 μg/ml
  N° isolates: 2
[1]; cumulative at MIC 4 μg/ml
  Cumul. %: 20%
[1]; cumulative at MIC 8 μg/ml
  Cumul. %: 33%
[1]; cumulative at MIC 64 μg/ml
  Cumul. %: 87%
[1]; cumulative at MIC 256 μg/ml
  Cumul. %: 100%
[2]; Cutibacterium acnes
  MIC50: 0.125 µg/mL (≈ 0.294 µM)
[2]; Cutibacterium acnes, 5 isolates sensitive to erythromycin and clindamycin
  MIC90: 0.5 µg/mL (≈ 1.18 µM)
[2]; sensitive isolates with MIC 0.125 μg/ml
  N° isolates: 3
[2]; sensitive isolates with MIC 0.25 μg/ml
  N° isolates: 1
[2]; sensitive isolates with MIC 0.5 μg/ml
  N° isolates: 1
[2]; cumulative at MIC 0.125 μg/ml
  Cumul. %: 60%
[2]; cumulative at MIC 0.25 μg/ml
  Cumul. %: 80%
[2]; cumulative at MIC 0.5 μg/ml
  Cumul. %: 100%

Reference: US7655676B2, “Use of amide derivative of GE 2270 factor A3 for the treatment of acne” (Naicons S.C.A.R.L., priority 2002, dated 2010)
